The labels stand for the following.
B1: ATP-dependent RNA helicase (DDX1) (protein, UniProt Q92499 1-740)
chain: MAAFSEMGVMPEIAQAVEEMDWLLPTDIQAESIPLILGGGDVLMAAETGSGKTGAFSIPVIQIVYETLKDQQEGKKGKTTIKTGASVLNKWQMNPYDRGSAFAIGSDGLCCQSREVKEWHGCRATKGLMKGKHYYEVSCHDQGLCRVGWSTMQASLDLGTDKFGFGFGGTGKKSHNKQFDNYGEEFTMHDTIGCYLDIDKGHVKFSKNGKDLGLAFEIPPHMKNQALFPACVLKNAELKFNFGEEEFKFPPKDGFVALSKAPDGYIVKSQHSGNAQVTQTKFLPNAPKALIVEPSRELAEQTLNNIKQFKKYIDNPKLRELLIIGGVAARDQLSVLENGVDIVVGTPGRLDDLVSTGKLNLSQVRFLVLDEADGLLSQGYSDFINRMHNQIPQVTSDGKRLQVIVCSATLHSFDVKKLSEKIMHFPTWVDLKGEDSVPDTVHHVVVPVNPKTDRLWERLGKSHIRTDDVHAKDNTRPGANSPEMWSEAIKILKGEYAVRAIKEHKMDQAIIFCRTKIDCDNLEQYFIQQGGGPDKKGHQFSCVCLHGDRKPHERKQNLERFKKGDVRFLICTDVAARGIDIHGVPYVINVTLPDEKQNYVHRIGRVGRAERMGLAISLVATEKEKVWYHVCSSRGKGCYNTRLKEDGGCTIWYNEMQLLSEIEEHLNCTISQVEPDIKVPVDEFDGKVTYGQKRAAGGGSYKGHVDILAPTVQELAALEKEAQTSFLHLGYLPNQLFRTF
B2: Alpha-crystallin B chain (CRYAB) (protein, UniProt P02511 1-175)
chain: MDIAIHHPWIRRPFFPFHSPSRLFDQFFGEHLLESDLFPTSTSLSPFYLRPPSFLRAPSWFDTGLSEMRLEKDRFSVNLDVKHFSPEELKVKVLGDVIEVHGKHEERQDEHGFISREFHRKYRIPADVDPLTITSSLSSDGVLTVNGPRKQVSGPERTIPITREEKPAVTAAPKK
B3: Carbonyl reductase [NADPH] 1 (CBR1) (protein, UniProt P16152 1-277)
chain: MSSGIHVALVTGGNKGIGLAIVRDLCRLFSGDVVLTARDVTRGQAAVQQLQAEGLSPRFHQLDIDDLQSIRALRDFLRKEYGGLDVLVNNAGIAFKVADPTPFHIQAEVTMKTNFFGTRDVCTELLPLIKPQGRVVNVSSIMSVRALKSCSPELQQKFRSETITEEELVGLMNKFVEDTKKGVHQKEGWPSSAYGVTKIGVTVLSRIHARKLSEQRKGDKILLNACCPGWVRTDMAGPKATKSPEEGAETPVYLALLPPDAEGPHGQFVSEKRVEQW
B4: 14-3-3 protein theta (1433T) (protein, UniProt P27348 1-245)
chain: MEKTELIQKAKLAEQAERYDDMATCMKAVTEQGAELSNEERNLLSVAYKNVVGGRRSAWRVISSIEQKTDTSDKKLQLIKDYREKVESELRSICTTVLELLDKYLIANATNPESKVFYLKMKGDYFRYLAEVACGDDRKQTIDNSQGAYQEAFDISKKEMQPTHPIRLGLALNFSVFYYEILNNPELACTLAKTAFDEAIAELDTLNEDSYKDSTLIMQLLRDNLTLWTSDSAGEECDAAEGAEN
B5: Isocitrate dehydrogenase [NADP] (IDHP) (protein, UniProt P48735 40-452)
chain: ADKRIKVAKPVVEMDGDEMTRIIWQFIKEKLILPHVDIQLKYFDLGLPNRDQTDDQVTIDSALATQKYSVAVKCATITPDEARVEEFKLKKMWKSPNGTIRNILGGTVFREPIICKNIPRLVPGWTKPITIGRHAHGDQYKATDFVADRAGTFKMVFTPKDGSGVKEWEVYNFPAGGVGMGMYNTDESISGFAHSCFQYAIQKKWPLYMSTKNTILKAYDGRFKDIFQEIFDKHYKTDFDKNKIWYEHRLIDDMVAQVLKSSGGFVWACKNYDGDVQSDILAQGFGSLGLMTSVLVCPDGKTIEAEAAHGTVTRHYREHQKGRPTSTNPIASIFAWTRGLEHRGKLDGNQDLIRFAQMLEKVCVETVESGAMTKDLAGCIHGLSNVKLNEHFLNTTDFLDTIKSNLDRALGRQ

Chains of the proteins cited; added tags and fusions are not shown. Residues count along the entry.
UniProt Q7Z7K6: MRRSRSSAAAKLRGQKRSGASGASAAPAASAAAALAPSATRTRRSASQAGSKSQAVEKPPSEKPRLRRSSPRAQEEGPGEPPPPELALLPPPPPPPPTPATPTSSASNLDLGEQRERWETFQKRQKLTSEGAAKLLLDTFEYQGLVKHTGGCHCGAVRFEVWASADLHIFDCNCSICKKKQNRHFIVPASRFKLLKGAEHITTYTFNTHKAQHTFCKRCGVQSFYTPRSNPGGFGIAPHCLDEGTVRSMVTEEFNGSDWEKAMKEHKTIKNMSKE
UniProt P12277: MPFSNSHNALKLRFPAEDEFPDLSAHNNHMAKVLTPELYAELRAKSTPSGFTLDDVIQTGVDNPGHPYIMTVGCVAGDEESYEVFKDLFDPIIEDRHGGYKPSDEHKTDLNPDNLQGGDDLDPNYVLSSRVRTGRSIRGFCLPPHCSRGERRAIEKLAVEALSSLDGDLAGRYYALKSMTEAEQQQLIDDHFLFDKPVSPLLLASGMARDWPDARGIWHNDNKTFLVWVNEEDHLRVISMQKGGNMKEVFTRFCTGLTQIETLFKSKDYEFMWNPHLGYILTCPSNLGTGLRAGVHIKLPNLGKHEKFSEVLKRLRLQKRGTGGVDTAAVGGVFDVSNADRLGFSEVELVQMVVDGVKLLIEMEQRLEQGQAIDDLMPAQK
UniProt P06396, residues 28-782: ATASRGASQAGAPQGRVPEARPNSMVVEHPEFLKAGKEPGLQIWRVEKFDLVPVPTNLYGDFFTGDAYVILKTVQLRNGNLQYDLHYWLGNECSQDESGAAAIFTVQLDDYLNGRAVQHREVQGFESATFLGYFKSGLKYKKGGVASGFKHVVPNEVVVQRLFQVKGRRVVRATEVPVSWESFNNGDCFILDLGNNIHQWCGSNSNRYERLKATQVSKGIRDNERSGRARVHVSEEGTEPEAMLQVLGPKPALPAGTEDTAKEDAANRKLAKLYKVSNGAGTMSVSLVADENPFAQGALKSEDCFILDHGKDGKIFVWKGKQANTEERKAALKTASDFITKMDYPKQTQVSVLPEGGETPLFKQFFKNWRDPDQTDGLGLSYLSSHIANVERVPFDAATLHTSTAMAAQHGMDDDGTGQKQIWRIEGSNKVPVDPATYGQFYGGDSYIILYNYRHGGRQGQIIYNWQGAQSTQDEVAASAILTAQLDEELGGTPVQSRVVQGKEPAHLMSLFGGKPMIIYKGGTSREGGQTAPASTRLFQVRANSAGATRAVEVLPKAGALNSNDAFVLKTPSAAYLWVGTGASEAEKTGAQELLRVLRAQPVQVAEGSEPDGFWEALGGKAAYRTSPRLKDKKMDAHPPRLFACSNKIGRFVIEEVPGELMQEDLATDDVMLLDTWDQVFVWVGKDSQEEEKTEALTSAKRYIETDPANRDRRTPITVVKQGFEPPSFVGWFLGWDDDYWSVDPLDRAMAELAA
UniProt P09874: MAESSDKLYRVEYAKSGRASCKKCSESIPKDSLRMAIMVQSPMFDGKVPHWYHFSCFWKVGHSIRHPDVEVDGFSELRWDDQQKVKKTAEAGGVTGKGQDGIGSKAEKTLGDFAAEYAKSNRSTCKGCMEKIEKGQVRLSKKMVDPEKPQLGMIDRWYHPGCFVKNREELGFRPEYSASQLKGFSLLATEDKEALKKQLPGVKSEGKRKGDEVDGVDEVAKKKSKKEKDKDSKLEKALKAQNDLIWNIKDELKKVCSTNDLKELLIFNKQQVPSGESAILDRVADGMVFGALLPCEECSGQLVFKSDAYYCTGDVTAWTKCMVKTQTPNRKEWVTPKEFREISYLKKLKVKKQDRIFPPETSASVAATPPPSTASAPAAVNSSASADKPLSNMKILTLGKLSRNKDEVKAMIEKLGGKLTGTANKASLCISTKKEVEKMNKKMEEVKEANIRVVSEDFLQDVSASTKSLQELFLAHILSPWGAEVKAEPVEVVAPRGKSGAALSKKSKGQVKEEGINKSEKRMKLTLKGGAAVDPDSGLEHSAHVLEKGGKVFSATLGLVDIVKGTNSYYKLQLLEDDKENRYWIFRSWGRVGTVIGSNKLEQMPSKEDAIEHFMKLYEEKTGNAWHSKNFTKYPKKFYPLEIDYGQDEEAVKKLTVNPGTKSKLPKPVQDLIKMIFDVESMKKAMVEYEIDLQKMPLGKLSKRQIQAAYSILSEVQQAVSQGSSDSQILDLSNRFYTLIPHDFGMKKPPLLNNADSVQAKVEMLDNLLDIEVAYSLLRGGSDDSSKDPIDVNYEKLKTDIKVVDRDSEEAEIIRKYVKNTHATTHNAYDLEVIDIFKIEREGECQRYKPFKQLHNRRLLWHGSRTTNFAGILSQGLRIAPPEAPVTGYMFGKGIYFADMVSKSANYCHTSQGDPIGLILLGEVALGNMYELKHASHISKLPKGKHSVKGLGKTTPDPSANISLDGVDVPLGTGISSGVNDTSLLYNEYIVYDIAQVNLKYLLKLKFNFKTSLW
UniProt P07737: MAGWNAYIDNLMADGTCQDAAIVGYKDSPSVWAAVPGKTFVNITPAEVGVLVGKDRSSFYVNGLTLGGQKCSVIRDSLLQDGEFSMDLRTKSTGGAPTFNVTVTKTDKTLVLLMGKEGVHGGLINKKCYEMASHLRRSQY
UniProt P63165, residues 1-97: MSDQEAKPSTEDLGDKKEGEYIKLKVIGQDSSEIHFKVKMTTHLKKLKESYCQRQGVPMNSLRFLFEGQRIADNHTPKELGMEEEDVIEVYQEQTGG
UniProt P13010: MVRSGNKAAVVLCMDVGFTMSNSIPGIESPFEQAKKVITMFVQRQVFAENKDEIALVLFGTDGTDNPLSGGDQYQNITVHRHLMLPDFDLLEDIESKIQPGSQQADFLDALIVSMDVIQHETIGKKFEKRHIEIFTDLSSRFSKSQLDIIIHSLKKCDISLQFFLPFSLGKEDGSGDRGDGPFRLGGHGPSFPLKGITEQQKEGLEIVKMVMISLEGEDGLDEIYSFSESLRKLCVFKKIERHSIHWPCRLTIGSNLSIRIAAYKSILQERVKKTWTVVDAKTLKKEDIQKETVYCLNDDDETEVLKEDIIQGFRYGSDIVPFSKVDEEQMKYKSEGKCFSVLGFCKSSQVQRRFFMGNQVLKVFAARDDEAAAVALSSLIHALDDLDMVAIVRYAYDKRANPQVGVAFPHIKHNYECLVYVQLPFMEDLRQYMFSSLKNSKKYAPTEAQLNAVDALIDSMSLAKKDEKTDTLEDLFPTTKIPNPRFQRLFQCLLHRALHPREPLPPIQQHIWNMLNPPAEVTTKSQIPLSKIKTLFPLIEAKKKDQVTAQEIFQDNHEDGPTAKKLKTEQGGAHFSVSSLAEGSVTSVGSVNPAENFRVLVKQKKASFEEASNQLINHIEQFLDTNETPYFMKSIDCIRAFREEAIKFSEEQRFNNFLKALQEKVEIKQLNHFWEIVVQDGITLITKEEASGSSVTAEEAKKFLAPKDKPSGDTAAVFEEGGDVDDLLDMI
UniProt P12956: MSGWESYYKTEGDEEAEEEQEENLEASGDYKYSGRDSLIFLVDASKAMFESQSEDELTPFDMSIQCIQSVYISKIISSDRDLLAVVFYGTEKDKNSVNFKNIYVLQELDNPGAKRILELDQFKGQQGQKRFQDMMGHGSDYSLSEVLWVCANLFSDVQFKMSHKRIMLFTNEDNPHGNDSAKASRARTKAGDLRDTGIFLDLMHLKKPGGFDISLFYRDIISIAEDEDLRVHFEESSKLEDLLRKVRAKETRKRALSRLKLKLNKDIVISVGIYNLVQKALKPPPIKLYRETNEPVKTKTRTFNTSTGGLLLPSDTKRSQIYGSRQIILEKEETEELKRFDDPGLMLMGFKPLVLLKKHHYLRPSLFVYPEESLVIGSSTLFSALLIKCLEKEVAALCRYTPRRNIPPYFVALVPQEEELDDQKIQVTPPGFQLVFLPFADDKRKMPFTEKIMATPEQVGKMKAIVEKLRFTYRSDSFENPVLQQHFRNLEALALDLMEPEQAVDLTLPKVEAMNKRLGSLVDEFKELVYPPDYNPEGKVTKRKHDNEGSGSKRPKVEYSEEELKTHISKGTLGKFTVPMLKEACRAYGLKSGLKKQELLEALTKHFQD

These are yes or no findings as the source states them, for the method shown. In cells and extracts the contact can be indirect. These calls come from enrichment with a bait or labelling near it, and not all partners need be listed.

The experiment addresses Small ubiquitin-related modifier 2 (SUMO2) (human (endogenous in frontal cortex)) (UniProt P61956). The experiment in a line: affinity purification with mass spectrometry; IP with a mouse anti-SUMO 2/3 IgG and magnetic beads from nuclear lysates of frontal cortex of two FXTAS and two control cases; nuclei lysed and heated in an SDS/Triton/deoxycholate buffer, then diluted; 50 mM N-ethylmaleimide in the buffers; 4 °C; on-bead trypsin digestion, LC-MS/MS.
For the molecule “Centromere protein V (CENPV) (from UniProt Q7Z7K6 1-275)”, the binding entry is listed as “binds”.
With “Creatine kinase B-type (KCRB) (from UniProt P12277 1-381)” the entry was “binds”; with “Gelsolin (GSN) (from UniProt P06396 28-782)”, “binds”; with “Poly [ADP-ribose] polymerase 1 (PARP1) (from UniProt P09874 1-1014)”, “binds”.
As to “Profilin-1 (PROF1) (from UniProt P07737 1-140)”, the binding result was “binds”.
The same measure for “Small ubiquitin-related modifier 1 (SUMO1) (from UniProt P63165 1-97)”: “binds”.
The same measure for “X-ray repair cross-complementing protein 5 (XRCC5) (from UniProt P13010 1-732)”: “binds”; for “X-ray repair cross-complementing protein 6 (XRCC6) (from UniProt P12956 1-609)”: “binds”.
The same measure for “p62/sequestosome-1 (p62/SQSTM1) (from UniProt Q13501 1-440)”: “binds”.
As for B1, the binding result is “binds”.
With B2 the entry was “binds”.
With B3 the entry was “binds”; with B4, “binds”.
With B5, the binding result is “binds”.

Source of the values: PMC6720097.
